# Reference: patent US20200087271A1, “N-CYCLOBUTYL-THIAZOL-5-CARBOXAMIDES WITH NEMATICIDAL ACTIVITY” (SYNGENTA PARTICIPATIONS AG, priority 2016, published 2020)
# Some of these results come from one statement about several compounds together. For some assays here: At least one compound was matched to its structure with a doubt left.
# How the values were obtained:
# Type in all cases: in vivo
# [1] = tested on: Meloidogyne spp. (root-knot nematode); experiment: Meloidogyne spp. contact activity, preventive, cucumber seed in filter paper pouch; settings: 200 ppm, cucumber cv. Toshka seed in pouch, 3000 eggs, twelve days
# Method: (§1) Filter papers (9 cm×4.5 cm) with a small pocket were placed into plastic pouches (12 cm×6 cm). One cucumber cv. Toshka seed was placed in the centre of the filter paper pocket of all the pouches needed for a test. […] Prior to application, the compound solution was prepared at twice the concentration required and the egg suspension is prepared with FORL nutrient solution with 3000 eggs/0.5 ml. After applying all the treatments, 3000 eggs (in 0.5 ml of FORL nutrient solution) were pipetted into the pouches. The pouches were incubated in a moist chamber for twelve days and watered regularly to maintain good filter paper moisture essential for the growing cucumber root system. After this period, the filter paper containing the germinated cucumber seedling was removed from the plastic pouch to assess the number of galls caused by Meloidogyne spp. per root system. Phytotoxicity was measured as a reduction of growth of the emerged cucumber seedling in comparison to the control.
# as §1, with “system.” for “system. Phytotoxicity was measured as a reduction of growth of the emerged cucumber seedling in comparison to the control.”
# M. incognita = experiment: Meloidogyne spp. contact activity, preventive, cucumber in pots treated with WP10 suspension; settings: cucumber cv. Toshka in pots, 5 ml WP10 suspension, 3000 eggs, fourteen days, Zeck's gall index
# Method: Cucumber cv. Toshka seeds were sown directly into pots filled with a sandy substrate. Six days later pots were each treated with 5 ml of a WP10 suspension of the test compound. Hereafter, pots were inoculated with 3000 eggs of M. incognita. The trial was harvested fourteen days after trial application and inoculation. Root galling was assessed according to Zeck's gall index (Zeck W. M. (1971) Ein Bonitierungsschema zur Feldauswertung von Wurzelgallenbefall. Pflanzenschutznachrichten Bayer 24, 1: 144-147). Phytotoxicity was measured as a reduction of growth of the emerged cucumber seedling in comparison to the control.
# [2] = tested on: Heterodera schachtii (Sugar beet cyst nematode); experiment: Heterodera schachtii contact activity, juvenile immobilization in 16-well assay plates; settings: 200 ppm, about 500 juveniles per well, 24 hours at 25° C. in darkness
# [3] = tested on: Meloidogyne spp. (root-knot nematode); experiment: Meloidogyne spp. contact activity, preventive, coated tomato seeds; settings: seed treatment 1 mg Al/seed, tomato cv. Roter Gnom, 2000 eggs, 28 days after inoculation
# [4] = tested on: Heterodera schachtii (Sugar beet cyst nematode); experiment: Heterodera schachtii contact activity, preventive, coated sugar beet seeds; settings: seed treatment 0.6 mg Al/seed, sugar beet cv. Impulse, 500 J2, 10 days after inoculation
SMILES,reduction of galling compared to the untreated control [1],reduction of galling compared to the untreated control (M. incognita),nematode immobilization compared to the untreated control [2],reduction of galling compared to the untreated control [3],reduction of nematode population compared to the untreated control [4]
"O=C(N[C@@H]1CC[C@@H]1c1ccccc1C(F)(F)F)c1scnc1C(F)(F)F (racemic) [Example 1, rac-4-(trifluoromethyl)-N-[(1,2 cis)-2-[2-(trifluoromethyl)phenyl]cyclobutyl]thiazole-5-carboxamide]",greater than 80%,greater than 80%,,,
"O=C(NC1CCC1c1ccc(C(F)(F)F)cc1)c1scnc1C(F)(F)F (racemic) [Example 2, rac-(4-(trifluoromethyl)-N-[(1,2 cis)-2-[4-(trifluoromethyl)phenyl]cyclobutyl]thiazole-5-carboxamide]",,greater than 80%,,,
"O=C(N[C@@H]1CC[C@@H]1c1ccc(OC(F)(F)F)cc1)c1scnc1C(F)(F)F (racemic) [Example 3, rac-N-[(1,2 cis)-2-[4-(trifluoromethoxy)phenyl]cyclobutyl]-4-(trifluoromethyl)thiazole-5-carboxamide]",greater than 80%,greater than 80%,greater than 75%,,
"O=C(N[C@H]1CC[C@H]1c1ccc(Cl)cc1)c1scnc1C(F)(F)F [Example 4, N-[(1S,2S)-2-(4-chlorophenyl)cyclobutyl]-4-(trifluoromethyl)thiazole-5-carboxamide]",greater than 80%,greater than 80%,greater than 75%,greater than 80%,
"O=C(N[C@H]1CC[C@H]1c1ccc(F)cc1Cl)c1scnc1C(F)(F)F [Example 5, N-[(1S,2S)-2-(2-chloro-4-fluoro-phenyl)cyclobutyl]-4-(trifluoromethyl)thiazole-5-carboxamide]",greater than 80%,greater than 80%,greater than 75%,greater than 80%,greater than 80%
"O=C(N[C@H]1CC[C@H]1c1ccc(F)cc1F)c1scnc1C(F)(F)F [Example 6, N-[(1S,2S)-2-(2,4-difluorophenyl)cyclobutyl]-4-(trifluoromethyl)thiazole-5-carboxamide]",greater than 80%,greater than 80%,greater than 75%,greater than 80%,greater than 80%
"O=C(N[C@H]1CC[C@H]1c1ccc(Cl)cc1Cl)c1scnc1C(F)(F)F [Example 7, N-[(1S,2S)-2-(2,4-dichlorophenyl)cyclobutyl]-4-(trifluoromethyl)thiazole-5-carboxamide]",greater than 80%,greater than 80%,greater than 75%,,
"O=C(N[C@H]1CC[C@H]1c1ccc(F)cc1F)c1scnc1C(F)F [Example 8, 4-(difluoromethyl)-N-[(1S,2S)-2-(2,4-difluorophenyl)cyclobutyl]thiazole-5-carboxamide]",greater than 80%,greater than 80%,greater than 75%,greater than 80%,greater than 80%
"O=C(N[C@H]1CC[C@H]1c1ccc(Cl)cc1Cl)c1scnc1C(F)F [Example 9, N-[(1S,2S)-2-(2,4-dichlorophenyl)cyclobutyl]-4-(difluoromethyl)thiazole-5-carboxamide]",greater than 80%,greater than 80%,greater than 75%,greater than 80%,
